Among the data in publication PMC12346347 are binding values, retold here.

The chains behind the UniProt entries cited, without tags or fusion partners.
UniProt Q15154: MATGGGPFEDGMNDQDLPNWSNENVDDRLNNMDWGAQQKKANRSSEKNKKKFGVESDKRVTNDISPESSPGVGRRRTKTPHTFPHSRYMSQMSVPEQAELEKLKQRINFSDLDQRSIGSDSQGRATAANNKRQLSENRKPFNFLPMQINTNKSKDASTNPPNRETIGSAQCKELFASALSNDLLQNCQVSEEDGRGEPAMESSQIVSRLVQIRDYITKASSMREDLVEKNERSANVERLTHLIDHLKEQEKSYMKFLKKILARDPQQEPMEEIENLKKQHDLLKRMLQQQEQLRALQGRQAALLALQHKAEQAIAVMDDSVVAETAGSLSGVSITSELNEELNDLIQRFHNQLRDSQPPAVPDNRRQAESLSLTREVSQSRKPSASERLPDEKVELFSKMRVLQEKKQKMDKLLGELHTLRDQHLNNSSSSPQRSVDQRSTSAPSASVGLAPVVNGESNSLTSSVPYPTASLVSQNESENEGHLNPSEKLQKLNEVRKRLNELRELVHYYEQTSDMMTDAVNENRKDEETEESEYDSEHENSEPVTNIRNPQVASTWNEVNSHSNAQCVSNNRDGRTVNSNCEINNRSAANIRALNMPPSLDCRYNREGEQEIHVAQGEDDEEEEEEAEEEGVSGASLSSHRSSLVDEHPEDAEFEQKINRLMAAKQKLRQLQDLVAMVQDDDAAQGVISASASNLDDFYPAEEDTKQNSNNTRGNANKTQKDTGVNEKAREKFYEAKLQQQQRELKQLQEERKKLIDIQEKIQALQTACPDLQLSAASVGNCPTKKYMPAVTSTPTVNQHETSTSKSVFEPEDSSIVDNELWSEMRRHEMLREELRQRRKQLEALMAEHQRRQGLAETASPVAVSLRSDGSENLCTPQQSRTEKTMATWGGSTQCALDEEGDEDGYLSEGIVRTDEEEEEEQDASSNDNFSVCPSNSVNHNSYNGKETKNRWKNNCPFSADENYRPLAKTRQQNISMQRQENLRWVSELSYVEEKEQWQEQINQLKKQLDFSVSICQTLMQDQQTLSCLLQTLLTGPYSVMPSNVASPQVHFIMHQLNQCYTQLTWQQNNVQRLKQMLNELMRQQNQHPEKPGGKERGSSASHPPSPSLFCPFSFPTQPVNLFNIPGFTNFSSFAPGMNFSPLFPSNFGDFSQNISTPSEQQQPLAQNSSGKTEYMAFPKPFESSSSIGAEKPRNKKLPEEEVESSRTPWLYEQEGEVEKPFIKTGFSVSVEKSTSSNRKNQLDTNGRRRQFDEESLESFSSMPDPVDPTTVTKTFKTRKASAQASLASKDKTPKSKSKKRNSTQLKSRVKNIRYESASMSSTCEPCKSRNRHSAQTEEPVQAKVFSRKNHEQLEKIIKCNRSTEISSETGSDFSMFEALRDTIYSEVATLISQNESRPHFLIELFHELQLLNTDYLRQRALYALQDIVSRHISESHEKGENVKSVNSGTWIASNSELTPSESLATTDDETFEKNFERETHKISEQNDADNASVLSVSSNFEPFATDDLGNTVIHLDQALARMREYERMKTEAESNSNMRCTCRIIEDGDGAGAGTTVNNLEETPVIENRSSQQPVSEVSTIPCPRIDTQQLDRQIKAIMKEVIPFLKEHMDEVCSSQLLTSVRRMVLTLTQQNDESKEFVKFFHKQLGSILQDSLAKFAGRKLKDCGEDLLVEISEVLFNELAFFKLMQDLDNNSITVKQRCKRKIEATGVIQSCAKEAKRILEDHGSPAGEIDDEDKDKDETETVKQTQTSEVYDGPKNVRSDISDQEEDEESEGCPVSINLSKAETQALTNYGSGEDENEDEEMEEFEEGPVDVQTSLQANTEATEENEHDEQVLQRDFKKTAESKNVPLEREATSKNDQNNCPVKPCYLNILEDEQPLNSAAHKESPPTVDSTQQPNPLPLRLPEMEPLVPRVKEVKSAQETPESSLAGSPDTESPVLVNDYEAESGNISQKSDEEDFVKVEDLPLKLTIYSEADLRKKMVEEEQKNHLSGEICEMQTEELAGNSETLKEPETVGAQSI

These are yes or no findings as the source states them, for the method shown. Binding seen in cells or lysates may run through a third protein. Some binding calls cover weakened binding; strength is not graded here. Tags and fused reporters may be left off the sequences shown.

Assay [1] concerns the target T1, Flag-tagged full-length human SDCCAG8 (human) (UniProt Q86SQ7).
T1 sequence: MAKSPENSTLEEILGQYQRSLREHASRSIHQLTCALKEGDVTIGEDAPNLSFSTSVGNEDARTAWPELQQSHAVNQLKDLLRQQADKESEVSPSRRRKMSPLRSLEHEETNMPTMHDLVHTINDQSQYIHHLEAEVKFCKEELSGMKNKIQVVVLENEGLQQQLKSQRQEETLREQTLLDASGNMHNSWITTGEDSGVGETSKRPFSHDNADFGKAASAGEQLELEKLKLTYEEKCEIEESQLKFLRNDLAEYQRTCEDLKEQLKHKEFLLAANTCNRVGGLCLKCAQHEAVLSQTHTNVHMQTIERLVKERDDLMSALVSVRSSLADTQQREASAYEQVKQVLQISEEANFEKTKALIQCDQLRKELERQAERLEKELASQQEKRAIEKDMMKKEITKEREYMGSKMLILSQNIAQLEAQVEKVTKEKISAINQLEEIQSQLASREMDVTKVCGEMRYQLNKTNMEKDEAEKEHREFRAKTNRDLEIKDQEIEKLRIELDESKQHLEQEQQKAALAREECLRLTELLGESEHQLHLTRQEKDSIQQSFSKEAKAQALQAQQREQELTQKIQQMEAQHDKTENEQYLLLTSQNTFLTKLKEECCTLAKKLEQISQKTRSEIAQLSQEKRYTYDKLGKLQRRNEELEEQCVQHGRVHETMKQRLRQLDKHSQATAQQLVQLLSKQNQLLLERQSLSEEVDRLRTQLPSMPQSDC
In words: co-IP; anti-Flag magnetic beads on lysates of HEK293T cells expressing Flag-tagged hSDCCAG8 constructs; endogenous PCM1 detected by Western blot; lysis buffer 0.2% Triton-X100, 0.05 mmol/L DTT; overnight at 4 °C; 5 washes with TBS. On the technique in general: In western blotting, separated proteins are transferred to a membrane and probed.

Assay [2] deals with T2, Flag-tagged hSDCCAG8-CC5–7 (human) (UniProt Q86SQ7).
T2 sequence: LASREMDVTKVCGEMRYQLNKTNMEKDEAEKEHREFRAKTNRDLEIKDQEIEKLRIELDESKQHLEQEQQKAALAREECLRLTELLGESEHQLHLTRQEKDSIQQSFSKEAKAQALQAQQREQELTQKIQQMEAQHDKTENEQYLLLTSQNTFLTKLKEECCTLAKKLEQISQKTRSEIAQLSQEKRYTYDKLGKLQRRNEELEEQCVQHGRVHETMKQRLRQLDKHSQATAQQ
Described as above.

Regarding “pericentriolar material 1 (PCM1), endogenous in HEK293T cells (from UniProt Q15154 1-2024)”, the binding result in assay [1] and in assay [2] was “binds” throughout.
